The list shows a part of the results. Most values lie at the level of the controls, where differences are scatter.

Sequences of proteins named here, by UniProt entry; tags and fusion partners are left off. A change or cut given only in a name is not applied to a line headed by its entry.
UniProt Q8CI33: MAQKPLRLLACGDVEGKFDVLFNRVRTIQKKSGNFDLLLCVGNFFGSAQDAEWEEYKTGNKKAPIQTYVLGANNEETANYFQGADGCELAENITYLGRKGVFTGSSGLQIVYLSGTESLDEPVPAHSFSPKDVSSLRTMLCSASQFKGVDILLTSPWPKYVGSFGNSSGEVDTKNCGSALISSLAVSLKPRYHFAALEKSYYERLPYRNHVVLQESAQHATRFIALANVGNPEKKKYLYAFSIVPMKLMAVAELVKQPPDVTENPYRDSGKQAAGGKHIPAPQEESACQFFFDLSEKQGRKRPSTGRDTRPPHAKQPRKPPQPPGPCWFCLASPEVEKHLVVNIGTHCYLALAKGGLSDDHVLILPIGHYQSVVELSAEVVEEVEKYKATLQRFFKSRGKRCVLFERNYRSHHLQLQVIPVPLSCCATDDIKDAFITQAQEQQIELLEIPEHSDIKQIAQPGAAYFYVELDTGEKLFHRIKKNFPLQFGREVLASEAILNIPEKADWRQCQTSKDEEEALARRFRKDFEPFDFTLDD
UniProt Q8K0C1: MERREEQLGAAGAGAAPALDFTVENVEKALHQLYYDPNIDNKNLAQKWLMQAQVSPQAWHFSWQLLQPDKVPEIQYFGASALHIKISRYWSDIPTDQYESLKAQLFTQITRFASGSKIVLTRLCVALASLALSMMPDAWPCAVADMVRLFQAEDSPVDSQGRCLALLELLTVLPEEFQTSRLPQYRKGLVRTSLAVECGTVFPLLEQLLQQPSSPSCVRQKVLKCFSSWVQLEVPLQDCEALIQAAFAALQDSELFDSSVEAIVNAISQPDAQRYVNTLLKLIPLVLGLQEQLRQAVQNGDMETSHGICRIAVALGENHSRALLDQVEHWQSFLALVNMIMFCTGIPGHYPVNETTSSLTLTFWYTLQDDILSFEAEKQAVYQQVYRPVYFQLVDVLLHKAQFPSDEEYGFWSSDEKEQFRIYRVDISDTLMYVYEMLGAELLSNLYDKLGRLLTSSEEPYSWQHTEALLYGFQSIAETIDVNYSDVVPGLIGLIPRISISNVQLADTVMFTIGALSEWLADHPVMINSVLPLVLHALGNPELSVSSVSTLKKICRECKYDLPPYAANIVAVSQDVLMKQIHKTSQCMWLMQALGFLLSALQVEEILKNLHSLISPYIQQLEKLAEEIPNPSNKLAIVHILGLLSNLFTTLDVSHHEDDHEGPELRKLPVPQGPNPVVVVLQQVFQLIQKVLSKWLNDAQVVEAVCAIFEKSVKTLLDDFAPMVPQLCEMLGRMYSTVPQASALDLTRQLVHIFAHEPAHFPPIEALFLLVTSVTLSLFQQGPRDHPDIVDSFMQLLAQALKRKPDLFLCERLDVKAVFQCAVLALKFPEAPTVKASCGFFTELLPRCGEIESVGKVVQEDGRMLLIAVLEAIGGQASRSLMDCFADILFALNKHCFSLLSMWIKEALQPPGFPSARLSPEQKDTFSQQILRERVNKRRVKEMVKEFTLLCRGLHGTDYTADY
UniProt Q8CFI2: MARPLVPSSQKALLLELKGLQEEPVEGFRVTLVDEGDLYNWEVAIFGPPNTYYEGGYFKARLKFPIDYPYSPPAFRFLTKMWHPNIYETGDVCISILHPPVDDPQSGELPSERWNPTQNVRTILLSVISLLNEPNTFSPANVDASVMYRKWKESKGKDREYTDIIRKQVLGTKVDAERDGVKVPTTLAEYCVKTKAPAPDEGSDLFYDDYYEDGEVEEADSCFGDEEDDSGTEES
UniProt Q8CCJ9: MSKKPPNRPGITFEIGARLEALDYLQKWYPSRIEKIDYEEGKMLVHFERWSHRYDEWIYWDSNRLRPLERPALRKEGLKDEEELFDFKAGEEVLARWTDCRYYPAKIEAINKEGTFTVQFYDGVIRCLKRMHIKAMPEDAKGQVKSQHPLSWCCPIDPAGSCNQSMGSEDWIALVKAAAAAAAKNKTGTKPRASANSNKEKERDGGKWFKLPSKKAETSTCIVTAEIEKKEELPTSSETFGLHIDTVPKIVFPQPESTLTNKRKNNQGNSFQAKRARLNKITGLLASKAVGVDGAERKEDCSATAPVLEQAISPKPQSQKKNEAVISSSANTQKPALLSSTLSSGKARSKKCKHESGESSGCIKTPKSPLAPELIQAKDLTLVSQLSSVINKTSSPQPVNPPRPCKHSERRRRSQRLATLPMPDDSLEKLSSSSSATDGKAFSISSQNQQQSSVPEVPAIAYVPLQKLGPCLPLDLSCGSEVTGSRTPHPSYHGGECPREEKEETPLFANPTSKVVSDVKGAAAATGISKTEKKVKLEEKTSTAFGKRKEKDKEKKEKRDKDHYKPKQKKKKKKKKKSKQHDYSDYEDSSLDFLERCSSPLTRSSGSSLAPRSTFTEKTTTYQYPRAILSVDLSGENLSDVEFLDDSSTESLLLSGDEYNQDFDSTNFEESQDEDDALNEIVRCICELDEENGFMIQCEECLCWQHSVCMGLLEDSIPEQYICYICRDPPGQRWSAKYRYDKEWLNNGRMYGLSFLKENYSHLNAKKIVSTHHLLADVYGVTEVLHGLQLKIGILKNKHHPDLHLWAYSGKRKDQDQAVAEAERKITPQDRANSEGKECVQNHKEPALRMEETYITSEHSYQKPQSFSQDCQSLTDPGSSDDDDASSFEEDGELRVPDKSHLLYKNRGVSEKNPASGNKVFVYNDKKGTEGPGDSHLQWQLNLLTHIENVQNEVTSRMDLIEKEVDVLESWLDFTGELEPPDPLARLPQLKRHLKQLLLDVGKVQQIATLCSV
UniProt Q8CDA1: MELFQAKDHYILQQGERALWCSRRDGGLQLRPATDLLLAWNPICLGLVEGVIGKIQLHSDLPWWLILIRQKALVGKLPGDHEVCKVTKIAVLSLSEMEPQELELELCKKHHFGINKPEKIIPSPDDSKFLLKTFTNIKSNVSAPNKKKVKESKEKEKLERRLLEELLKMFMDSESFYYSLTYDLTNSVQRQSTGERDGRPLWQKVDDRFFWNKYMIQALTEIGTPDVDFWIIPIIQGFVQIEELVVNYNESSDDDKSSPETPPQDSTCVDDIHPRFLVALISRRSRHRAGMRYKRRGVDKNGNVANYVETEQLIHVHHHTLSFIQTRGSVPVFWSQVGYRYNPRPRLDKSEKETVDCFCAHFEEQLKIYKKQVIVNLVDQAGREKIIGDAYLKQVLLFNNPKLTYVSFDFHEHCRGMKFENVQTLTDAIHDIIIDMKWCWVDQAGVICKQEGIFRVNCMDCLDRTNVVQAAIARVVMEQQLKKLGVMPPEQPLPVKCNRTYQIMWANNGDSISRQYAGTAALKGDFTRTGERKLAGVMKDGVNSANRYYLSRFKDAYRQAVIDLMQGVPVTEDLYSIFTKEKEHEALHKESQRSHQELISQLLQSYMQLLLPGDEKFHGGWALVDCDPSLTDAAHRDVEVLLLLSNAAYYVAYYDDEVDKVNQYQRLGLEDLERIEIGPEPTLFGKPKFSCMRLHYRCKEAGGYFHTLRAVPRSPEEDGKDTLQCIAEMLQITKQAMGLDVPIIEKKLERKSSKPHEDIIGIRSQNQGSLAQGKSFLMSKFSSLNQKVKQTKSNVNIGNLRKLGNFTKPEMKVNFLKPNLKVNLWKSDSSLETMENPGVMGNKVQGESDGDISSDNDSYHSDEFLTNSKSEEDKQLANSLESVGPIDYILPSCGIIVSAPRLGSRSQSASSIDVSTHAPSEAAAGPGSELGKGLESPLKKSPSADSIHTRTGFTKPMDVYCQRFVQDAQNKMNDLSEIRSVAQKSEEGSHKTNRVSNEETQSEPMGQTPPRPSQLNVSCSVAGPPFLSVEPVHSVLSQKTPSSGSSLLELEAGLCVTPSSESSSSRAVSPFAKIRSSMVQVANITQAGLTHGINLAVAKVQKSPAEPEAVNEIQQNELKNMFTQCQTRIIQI
UniProt Q8HWE5, whole entry: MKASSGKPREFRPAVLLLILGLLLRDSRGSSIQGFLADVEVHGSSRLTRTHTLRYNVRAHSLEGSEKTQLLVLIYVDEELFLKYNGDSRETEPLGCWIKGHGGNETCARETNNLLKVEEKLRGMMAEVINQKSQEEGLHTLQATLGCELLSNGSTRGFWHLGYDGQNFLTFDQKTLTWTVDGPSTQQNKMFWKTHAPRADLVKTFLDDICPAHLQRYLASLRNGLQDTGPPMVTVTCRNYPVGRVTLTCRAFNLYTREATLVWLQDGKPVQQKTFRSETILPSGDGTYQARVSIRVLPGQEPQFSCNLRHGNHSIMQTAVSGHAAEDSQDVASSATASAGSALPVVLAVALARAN
UniProt Q8JZW5: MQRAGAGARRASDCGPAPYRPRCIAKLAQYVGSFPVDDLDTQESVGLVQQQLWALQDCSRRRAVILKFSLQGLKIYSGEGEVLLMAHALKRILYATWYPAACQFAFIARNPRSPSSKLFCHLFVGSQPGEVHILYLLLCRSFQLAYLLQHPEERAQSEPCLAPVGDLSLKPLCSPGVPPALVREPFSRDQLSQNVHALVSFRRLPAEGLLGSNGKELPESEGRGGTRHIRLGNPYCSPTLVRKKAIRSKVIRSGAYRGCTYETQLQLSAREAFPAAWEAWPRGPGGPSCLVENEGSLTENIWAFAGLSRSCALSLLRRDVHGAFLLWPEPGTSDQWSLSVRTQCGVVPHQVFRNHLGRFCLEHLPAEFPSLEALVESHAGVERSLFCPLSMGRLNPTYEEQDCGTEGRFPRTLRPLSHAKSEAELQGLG
UniProt Q8JZM0: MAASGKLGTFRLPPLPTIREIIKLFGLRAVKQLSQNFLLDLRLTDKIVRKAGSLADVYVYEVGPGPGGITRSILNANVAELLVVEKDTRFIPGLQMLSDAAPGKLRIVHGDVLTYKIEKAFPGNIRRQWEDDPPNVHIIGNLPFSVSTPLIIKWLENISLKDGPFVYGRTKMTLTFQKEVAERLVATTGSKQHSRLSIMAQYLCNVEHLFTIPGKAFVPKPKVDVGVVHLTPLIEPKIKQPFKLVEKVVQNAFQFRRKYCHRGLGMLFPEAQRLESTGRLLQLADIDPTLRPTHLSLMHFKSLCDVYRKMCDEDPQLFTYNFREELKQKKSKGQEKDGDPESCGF
UniProt Q8CCE9: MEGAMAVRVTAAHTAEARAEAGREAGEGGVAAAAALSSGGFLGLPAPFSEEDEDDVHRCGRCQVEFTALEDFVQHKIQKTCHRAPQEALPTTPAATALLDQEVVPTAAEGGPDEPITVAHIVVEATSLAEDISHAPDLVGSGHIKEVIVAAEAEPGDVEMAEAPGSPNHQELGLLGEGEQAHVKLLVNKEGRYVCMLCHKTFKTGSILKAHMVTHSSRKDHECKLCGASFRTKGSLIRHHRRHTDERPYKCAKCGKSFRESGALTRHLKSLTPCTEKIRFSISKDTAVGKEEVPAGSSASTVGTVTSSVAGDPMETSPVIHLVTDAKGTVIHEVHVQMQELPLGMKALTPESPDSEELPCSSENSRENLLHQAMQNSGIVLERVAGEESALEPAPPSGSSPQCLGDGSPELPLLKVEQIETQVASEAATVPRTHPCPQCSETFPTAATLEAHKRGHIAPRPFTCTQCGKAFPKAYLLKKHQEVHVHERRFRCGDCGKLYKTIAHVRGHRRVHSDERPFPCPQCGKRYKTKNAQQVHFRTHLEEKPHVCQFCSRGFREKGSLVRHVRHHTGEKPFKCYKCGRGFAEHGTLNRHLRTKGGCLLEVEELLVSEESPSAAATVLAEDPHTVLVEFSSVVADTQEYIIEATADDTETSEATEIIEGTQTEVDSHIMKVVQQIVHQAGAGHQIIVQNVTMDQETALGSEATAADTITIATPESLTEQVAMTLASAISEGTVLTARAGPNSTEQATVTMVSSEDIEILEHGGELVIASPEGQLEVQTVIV
UniProt Q8CFJ9: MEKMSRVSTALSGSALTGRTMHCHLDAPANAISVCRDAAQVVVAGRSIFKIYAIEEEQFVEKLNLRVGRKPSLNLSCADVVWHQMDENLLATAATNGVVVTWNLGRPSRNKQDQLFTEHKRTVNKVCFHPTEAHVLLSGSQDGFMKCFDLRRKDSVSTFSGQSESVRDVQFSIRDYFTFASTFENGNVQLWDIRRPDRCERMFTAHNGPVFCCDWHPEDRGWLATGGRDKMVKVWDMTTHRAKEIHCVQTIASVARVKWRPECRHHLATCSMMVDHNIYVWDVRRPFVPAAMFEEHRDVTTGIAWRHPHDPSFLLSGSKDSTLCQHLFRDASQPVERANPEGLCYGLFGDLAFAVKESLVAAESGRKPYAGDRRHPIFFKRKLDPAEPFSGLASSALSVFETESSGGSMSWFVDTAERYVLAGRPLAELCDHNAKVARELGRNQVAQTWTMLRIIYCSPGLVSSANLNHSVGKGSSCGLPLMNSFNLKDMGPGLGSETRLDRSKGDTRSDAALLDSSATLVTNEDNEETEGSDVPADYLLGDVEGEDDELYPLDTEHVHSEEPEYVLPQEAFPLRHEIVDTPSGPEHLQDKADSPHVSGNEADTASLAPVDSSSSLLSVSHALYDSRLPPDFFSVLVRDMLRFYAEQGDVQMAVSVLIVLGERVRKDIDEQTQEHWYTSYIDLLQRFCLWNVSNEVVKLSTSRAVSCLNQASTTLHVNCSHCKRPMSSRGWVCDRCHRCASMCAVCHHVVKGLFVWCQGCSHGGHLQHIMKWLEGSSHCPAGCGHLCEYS

Compound in the experiment: CN[C@@H]1C[C@H]2O[C@@](C)([C@@H]1OC)n1c3ccccc3c3c4c(c5c6ccccc6n2c5c31)C(=O)NC4 [staurosporine]
Kind of experiment: log2 fold change of tryptic peptide abundance, ligand vs vehicle (limited proteolysis) (log2 ratio); higher = more trypsin-susceptible (destabilized). As to conditions: ligand concentration: 20 uM; sample: mouse liver crude lysate; replicate design: treated separately.
For “UniProt Q8CCG1 (peptide sequence: LQRHSTVCGK, peptide start residue: 394)”, the log2 fold change was -0.124.

With “UniProt Q8CF94 (peptide sequence: VGENAQTEK, peptide start residue: 194)”, the log2 fold change worked out at 0.107.

With “UniProt Q8CI33 (peptide sequence: NFPLQFGR, peptide start residue: 483)”, the log2 fold change was found to be 0.0986.

For “UniProt Q8CIB5 (peptide sequence: INQLYEQAK, peptide start residue: 291)”, the log2 fold change was -0.471.

Consider “UniProt Q8K023 (peptide sequence: IEDGTVKR, peptide start residue: 69)”, for which the log2 fold change is -0.279.

On to “UniProt Q8K0Q5 (peptide sequence: TQAAAVQKR, peptide start residue: 141)”, for which the log2 fold change is 0.738.

Turning to “UniProt Q8K0C1 (peptide sequence: EFTLLCR, peptide start residue: 946)”, the log2 fold change was 0.168.

Turning to “UniProt Q8CFI2 (peptide sequence: ARPLVPSSQK, peptide start residue: 2)”, the log2 fold change was determined as 0.233.

Consider “UniProt Q8CHG7 (peptide sequence: HSVSIVESNLGVGR, peptide start residue: 1174)”, for which the log2 fold change is -0.293.

Turning to “UniProt Q8CCJ9 (peptide sequence: KDQDQAVAEAERK, peptide start residue: 813)”, the log2 fold change worked out at 0.893.

For the target “UniProt Q8CDA1 (peptide sequence: VVMEQQLKK, peptide start residue: 475)”, the log2 fold change was determined as 0.437.

With “UniProt Q8CEE7 (peptide sequence: EKAPSPEAEDEEVARR, peptide start residue: 293)”, the log2 fold change is -0.182.

Consider “UniProt Q8CBY8 (peptide sequence: KAYYLACGFCR, peptide start residue: 105)”, for which the log2 fold change worked out at 0.433.

On to “UniProt Q8JZZ7 (peptide sequence: GHVFAGDVSSSVR, peptide start residue: 556)”, for which the log2 fold change was -0.359.

Take “UniProt Q8HWE5 (peptide sequence: LTRTHTLR, peptide start residue: 47)”: the log2 fold change was 0.158.

“UniProt Q8CJ26 (peptide sequence: TVELGDPDRDQR, peptide start residue: 91)”: the log2 fold change was -0.202.

As for “UniProt Q8CGK3 (peptide sequence: RAGVTCIILPAENRK, peptide start residue: 893)”, the log2 fold change was -0.536.

As to “UniProt Q8JZW5 (peptide sequence: VIRSGAYR, peptide start residue: 250)”, the log2 fold change was -0.345.

Take “UniProt Q8JZM0 (peptide sequence: DGPFVYGR, peptide start residue: 162)”: the log2 fold change was determined as 0.254.

Turning to “UniProt Q8CCE9 (peptide sequence: VTAAHTAEAR, peptide start residue: 9)”, the log2 fold change was 0.194.

As to “UniProt Q8JZV7 (peptide sequence: VSLGHSVADLR, peptide start residue: 207)”, the log2 fold change was 0.274.

As to “UniProt Q8K0H1 (peptide sequence: KDETQLDQPMNQQQALPIRPK, peptide start residue: 509)”, the log2 fold change was -0.212.

Consider “UniProt Q8CI51 (peptide sequence: VTSTTNMAYNKAPR, peptide start residue: 117)”, for which the log2 fold change came to 0.147.

On to “UniProt Q8CHK3 (peptide sequence: EIASGFHK, peptide start residue: 129)”, for which the log2 fold change was determined as 0.169.

For “UniProt Q8K0H7 (peptide sequence: VVVGEPPEAR, peptide start residue: 472)”, the log2 fold change was -0.0555.

For the target “UniProt Q8CGF7 (peptide sequence: GGDGGEGERFNPGELR, peptide start residue: 5)”, the log2 fold change is -0.308.

Take “UniProt Q8CCN5 (peptide sequence: QPMTLGTITK, peptide start residue: 534)”: the log2 fold change came out at 0.311.

Regarding “UniProt Q8CFJ9 (peptide sequence: HPIFFKR, peptide start residue: 375)”, the log2 fold change was -0.239.

Take “UniProt Q8CI04 (peptide sequence: TKLPLTLR, peptide start residue: 751)”: the log2 fold change is 0.32.

As to “UniProt Q8CD10 (peptide sequence: CGSTFFR, peptide start residue: 141)”, the log2 fold change came out at 0.308.

Take “UniProt Q8CGA3 (peptide sequence: EQAALQEGHK, peptide start residue: 284)”: the log2 fold change is -0.285.
